Test results from publication PMC12442009 (ACS Applied Materials & Interfaces, 2025).

How the values were obtained:
NCI/ADR-RES cells = assay: Confocal microscopy internalization and colocalization; conditions: 100 μM
[1] = general procedure: Fmoc solid-phase peptide synthesis; Rink Amide resin (100-200 mesh; 0.64 mmol/g); N-HBTU; PyAOP/DIEA for on-resin cyclization

With `COc1cccc2c1C(=O)c1c(O)c3c(c(O)c1C2=O)C[C@@](O)(C(CO)=NNC(=O)CCCCCN1C(=O)CC(SC[C@H]2NC(=O)[C@H](CCC(N)=O)NC(=O)[C@@H](CCCCN)NC(=O)[C@H](Cc4cn(CCCCC(=O)NCCNc5ccc([N+](=O)[O-])c6nonc56)nn4)NC(=O)[C@@H](Cc4c[nH]c5ccccc45)NC(=O)[C@H](CO)NC(=O)[C@@H](CCCCN)NC(=O)[C@H](CO)NC2=O)C1=O)C[C@@H]3O[C@H]1C[C@H](N)[C@H](O)[C@H](C)O1` (stereo partly shown) [CP1T NBD -DOX] the “Pearson correlation coefficient (PCC), DOX and NBD fluorescence colocalization” value (NCI/ADR-RES cells; 2 h) was 0.66 ± 0.01, the “Pearson correlation coefficient (PCC), NBD and LysoTracker Deep Red colocalization” value (NCI/ADR-RES cells; 2 h) was 0.54 ± 0.06 and the “Pearson correlation coefficient (PCC), DOX and NBD fluorescence colocalization” value (NCI/ADR-RES cells; 24 h) was 0.61±0.11. For the same compound, the “Pearson correlation coefficient (PCC), DOX and NBD fluorescence colocalization” value (NCI/ADR-RES cells; 48 h) was 0.62±0.02.

Work on “PEPTIDE1{Q.[dC].S.[dK].S.[dW].[Prg].[dK]}$PEPTIDE1,PEPTIDE1,8:R2-1:R1$$$V2.0” yielded an isolated yield ([1]; whole synthesis, overall, scale 400 mg of resin, 0.64 mmol·g-1) of 14% and an isolated mass ([1]; whole synthesis, scale 400 mg of resin, 0.64 mmol·g-1) of 34 mg.

“PEPTIDE1{Q.[dCys(MC-DOX)].S.[dK].S.[dW].[Prg(T6)].[dK]}$PEPTIDE1,PEPTIDE1,1:R1-8:R2$$$V2.0” gave a conjugation yield ([1]; conjugation step) of 94%.

For some of these results: HELM strings list residues between dots; [ac] is acetyl, [am] amide, other brackets name non-standard units.
